Values quoted from earlier work in patent US12233043B1, “Method of transdermal delivery of cannabinoid compositions” (Florida A&M University, priority 2022, dated 2025).
Some entries share one result that the patent states for a list of compounds. Some ranges recur; such a range may be that of the whole group of compounds.

Details: cited from earlier work

SMILES: CCCc1cc(O)c2c(c1)OC(C)(C)[C@@H]1CCC(C)=C[C@@H]21 [THCV, Tetrahydrocannabivarin]
- solubility in water (Koch, Jennotte et al. 2020): 2 to 10 µg/mL
- log p (Tijani, Thakur et al. 2021): > 5
